Test results from PubChem BioAssay AID228 (DTP/NCI, 2004).
The list shows only some results of the screen, not a fair sample: it gathers some chemical classes. Other doses and runs of a compound may be missing. T/C is the treated group as % of the vehicle group. Some T/C values are marked as having no survivor count here; that says nothing about deaths at the dose. Schedules are NCI's codes, read here as Q, the interval in days (D) or hours (H), X, the number of doses. Some entries were tested several times; the results are listed from low to high.

System: BDF1 mice, Friend leukemia sc, tumor weight T/C
Assay: NCI In Vivo Anticancer Drug Screen. Data for tumor model Friend Virus Leukemia (Solid) (subcutaneous) in B6D2F1 (BDF1) mice
Details: T/C endpoint: mean tumor weight, schedule: Q01DX011 (ip), vehicle: carboxymethylcellulose (CMC), evaluation day not shown, higher T/C = larger tumour
Protocol: The antitumor activity of compounds was measured in mice bearing transplantable tumors. Survival or tumor size were measured and the results are expressed as the measurement made in the treated group (T) divided by the measurement made in the vehicle treated control group (C). The tumor model used in this assay is Friend Virus Leukemia (Solid) (subcutaneous) in B6D2F1 (BDF1) mice

Which T/C (dose: 0.04 mg/kg/injection) does the source give for CN(CCCl)CCCl here?
Its T/C is 84 % of control [survivor count not shown].

And the T/C (dose: 0.07 mg/kg/injection)?
The T/C was 117 % of control [survivor count not shown].

What about the T/C (dose: 0.12 mg/kg/injection) of the same compound?
Its T/C is 103 % of control [survivor count not shown].

And the T/C (dose: 0.15 mg/kg/injection)?
Its T/C is 103 % of control [survivor count not shown].

And the T/C (dose: 0.25 mg/kg/injection)?
The T/C was 35 [survivor count not shown], 89 [survivor count not shown], 121 [survivor count not shown], 161 % of control [survivor count not shown].

What about the T/C (dose: 0.3 mg/kg/injection) of the same compound?
Its T/C is 85 % of control [survivor count not shown].

And the T/C (dose: 0.5 mg/kg/injection)?
The T/C was 29 [survivor count not shown], 42 [survivor count not shown], 97 [survivor count not shown], 109 % of control [survivor count not shown].
